One substance from PMC11427100 can be followed below.

The chains behind the UniProt entries cited, without tags or fusion partners.
UniProt Q6R891: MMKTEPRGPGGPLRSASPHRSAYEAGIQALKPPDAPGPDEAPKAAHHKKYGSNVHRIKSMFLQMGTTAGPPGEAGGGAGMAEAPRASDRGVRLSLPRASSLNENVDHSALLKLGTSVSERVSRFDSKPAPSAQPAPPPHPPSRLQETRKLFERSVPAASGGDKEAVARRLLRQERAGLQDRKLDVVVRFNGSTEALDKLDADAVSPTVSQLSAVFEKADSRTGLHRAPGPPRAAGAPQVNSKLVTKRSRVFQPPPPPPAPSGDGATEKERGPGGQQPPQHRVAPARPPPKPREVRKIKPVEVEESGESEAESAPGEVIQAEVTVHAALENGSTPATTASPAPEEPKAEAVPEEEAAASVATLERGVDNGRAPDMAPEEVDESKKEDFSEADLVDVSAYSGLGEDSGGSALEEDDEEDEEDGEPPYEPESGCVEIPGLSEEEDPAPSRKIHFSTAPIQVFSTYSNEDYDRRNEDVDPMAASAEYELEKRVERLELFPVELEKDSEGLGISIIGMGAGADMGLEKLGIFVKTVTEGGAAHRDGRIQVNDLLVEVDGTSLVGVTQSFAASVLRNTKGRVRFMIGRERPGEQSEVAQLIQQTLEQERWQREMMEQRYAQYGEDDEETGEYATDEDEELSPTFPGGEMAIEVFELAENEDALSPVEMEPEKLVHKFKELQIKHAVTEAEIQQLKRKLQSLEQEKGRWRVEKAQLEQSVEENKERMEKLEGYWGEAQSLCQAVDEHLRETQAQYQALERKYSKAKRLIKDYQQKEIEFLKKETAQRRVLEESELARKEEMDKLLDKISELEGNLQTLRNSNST
UniProt H3BJD6: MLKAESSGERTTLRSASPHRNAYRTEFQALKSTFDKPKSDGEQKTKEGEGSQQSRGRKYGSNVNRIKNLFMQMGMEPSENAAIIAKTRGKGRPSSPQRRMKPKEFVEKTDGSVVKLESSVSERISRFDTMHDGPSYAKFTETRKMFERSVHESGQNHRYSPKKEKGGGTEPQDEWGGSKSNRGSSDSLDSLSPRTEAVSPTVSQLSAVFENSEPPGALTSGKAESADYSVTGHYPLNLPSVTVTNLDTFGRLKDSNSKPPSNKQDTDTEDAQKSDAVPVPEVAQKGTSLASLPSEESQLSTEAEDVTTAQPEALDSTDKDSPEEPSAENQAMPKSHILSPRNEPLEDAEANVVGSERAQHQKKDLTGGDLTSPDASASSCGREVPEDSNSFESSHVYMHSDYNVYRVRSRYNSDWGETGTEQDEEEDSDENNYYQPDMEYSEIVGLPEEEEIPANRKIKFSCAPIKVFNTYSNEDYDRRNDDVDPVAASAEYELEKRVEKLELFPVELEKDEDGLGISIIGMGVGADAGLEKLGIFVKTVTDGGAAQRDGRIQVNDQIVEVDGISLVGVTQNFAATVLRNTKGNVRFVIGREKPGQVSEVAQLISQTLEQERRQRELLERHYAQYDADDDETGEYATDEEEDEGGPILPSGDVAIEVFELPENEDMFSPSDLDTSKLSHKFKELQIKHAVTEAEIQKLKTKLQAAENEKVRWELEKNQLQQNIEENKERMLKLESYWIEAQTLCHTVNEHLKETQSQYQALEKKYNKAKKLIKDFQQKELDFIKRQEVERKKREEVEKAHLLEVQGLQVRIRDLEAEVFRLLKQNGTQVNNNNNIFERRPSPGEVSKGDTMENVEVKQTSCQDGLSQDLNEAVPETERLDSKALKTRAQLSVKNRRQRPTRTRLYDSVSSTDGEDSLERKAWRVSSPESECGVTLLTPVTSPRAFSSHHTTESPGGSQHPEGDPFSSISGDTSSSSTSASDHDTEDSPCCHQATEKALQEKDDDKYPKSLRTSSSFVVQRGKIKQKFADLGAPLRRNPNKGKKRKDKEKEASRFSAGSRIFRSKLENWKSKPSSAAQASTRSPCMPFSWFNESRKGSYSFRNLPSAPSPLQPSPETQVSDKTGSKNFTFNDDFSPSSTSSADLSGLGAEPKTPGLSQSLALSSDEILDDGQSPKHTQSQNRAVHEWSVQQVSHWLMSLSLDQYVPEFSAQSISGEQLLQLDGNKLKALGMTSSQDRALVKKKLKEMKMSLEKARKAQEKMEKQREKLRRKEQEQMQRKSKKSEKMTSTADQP

This assay addresses Spinophilin (mouse (endogenous in pancreas and isolated islets)) (UniProt Q6R891). The assay is described as follows: co-IP; spinophilin immunoprecipitated from pancreas lysate (RIPA) of adult WT, Ins2^Akita and Lepr^db/db mice; immunoblot for PP1α, myosin-9, neurabin. (In general: In western blotting, separated proteins are transferred to a membrane and probed.)

These are yes or no findings as the source states them, for the method shown. Binding seen in cells or lysates may run through a third protein. Some binding calls cover weakened binding; strength is not graded here.

On to Neurabin-1 (from UniProt H3BJD6 1-1292), for which the binding entry is “binds”.
